Measured values as given in patent EP4821941A1, “BRAIN-TARGETING PEPTIDE, TRANSPORT CARRIER, AND METHOD FOR SCREENING PEPTIDE BINDING TO TARGET CELL” (dated 2026).
The structures given here were assigned with low confidence; some may be wrong.

What was measured:
Cortical neurons = assay: In vivo panning of a phage display peptide library in mice, next-generation sequencing read counts (cortical neurons); conditions: after third round of in vivo panning; phage library 1×10^11 cfu via tail vein; cells collected by laser capture microdissection
Whole cerebrum = assay: In vivo panning of a phage display peptide library in mice, next-generation sequencing read counts (whole cerebrum); conditions: after third round of in vivo panning; phage library 1×10^11 cfu via tail vein; tissues collected five minutes after administration

For `C[C@H](NC(=O)[C@H](CCCNC(=N)N)NC(=O)[C@H](CC(=O)O)NC(=O)[C@@H](N)[C@@H](C)O)C(=O)N1CCC[C@H]1C(=O)N[C@@H](Cc1c[nH]cn1)C(=O)N[C@@H](CCCNC(=N)N)C(=O)O`, the “Number of reads Cortical neurons” value (Cortical neurons) was 104 and the “Number of reads Whole cerebrum” value (Whole cerebrum) was 19.
